# In PMC10163288:
# The other results are listed elsewhere or left out.
# B1: il10ra_site1_normal_mot_HHH_b1_07278_000000273_0001_1_20_H_._637cc8c69280e3cc9e9840e2bee06d3a_0001_1_0001_0000200003_0000001_0 (protein)
# chain: SVEELLEELEKRNWIFVRSLRLLLEQLREDPNDEAVREALRHLERIAKELGDPLLEEILELIIEG
# B2: il10ra_site1_sap_16_mot_HHH_b2_04274_000000146_0001_1_19_H_._HHH_b2_04971_0001_0000200017_0000003_0_0001 (protein)
# chain: SSSSDEEERALELAVRASKLIWEGDEEEAREVIEELEEIVRKIGDERLRLSVRFLKALLKSSSSS
# B3: il10ra_site1_sap_11_mot_HHH_b1_00329_000000081_0001_1_16_H_._HHH_b1_07089_0001_0000100023_0000001_0_0001_af2pred_0001 (protein)
# chain: SSSSSEEEILRRQARALELAVRTNDPEKIRLAAHDLLLLAELANDEEIFERAERILEEVNSSSSS
# B4: il10ra_site1_normal_mot_3af0db62db2b275566dae2e03bf881fa_0001_000000003_0001_37_50_H_._HHH_b2_01366_0001_0000200011_0000001_0_af2pred_dldesign_0_af2pred (protein)
# chain: SSSSSEERLRAQAILDFAKHMKNPEVATKALEIALEIAKKEKDEELIAEIEAALAELEKLSSSSS
# B5: il10ra_site1_sap_30_mot_HHH_b2_03743_af2_000000240_0001_38_52_H_._HHH_b2_01499_0001_0000200012_0000001_0_0001 (protein)
# chain: SSSSSMDEELLRAIVRLIEELGDPEAAEEVRELLEEYEEKGDPRALKEAAEILARVSRRRFSSSS
# B6: il10ra_site1_normal_mot_812af5c65f29141b25d3ed263bec1fb2_0001_1_000000083_0001_36_50_H_._HHH_b2_06063_0001_0000100001_0000001_1_af2pred_0001 (protein)
# chain: SSSSSDEELREEVEELLEEAKHIDDPEEAAQVLLRALELAYELGDPELIQLVAEVAQRLKSSSSS
# B7: il10ra_site1_sap_27_mot_HHH_b1_06912_af2_000000235_0001_1_15_H_._HHH_b1_07772_0001_0000200015_0000002_0_0001 (protein)
# chain: SSSSSSDEAAHLSLEAFRAALRGDEEKAEEILEEAEEVAREEGDPRLLRVIEDLLRVLKSSSSSS
# B8: il10ra_site1_sap_18_mot_HHH_b2_01205_000000166_0001_1_19_H_._HHH_b1_04855_0001_0000400030_0000001_0_0001 (protein)
# chain: SSSSSEEEVEELLREAERLLENGNPRKAIEVLLRAVRIAVKANNWELLHEVWRLIKEIAENSSSS
# B9: il10ra_site1_sap_22_mot_HHH_b2_06795_000000133_0001_42_56_H_._HHH_b2_02890_0002_0000200012_0000001_0_0001 (protein)
# chain: SSSSDELEELLRQLEEAVEEGDQELVQRLALRVVRLAFENQDREVLHEVWRLIKEFAERLSSSSS
# B10: il10ra_site1_sap_31_mot_HHH_b1_08477_000000091_0001_40_57_H_._HHH_b2_07133_0001_0000300015_0000001_0_0001 (protein)
# chain: SSSSSDEEHQLELALRFARWLIEAGDEEAARFILEVVLEMARRAGDEEIQREAEELLEEISSSSS
# B11: il10ra_site1_normal_mot_HHH_b2_07642_af2_000000000_0001_1_18_H_._HHH_b1_05285_af2_0001_0000300016_0000001_0 (protein)
# chain: SSSSQEEYQEFAEIVAEALRKLMEEGDEETLEELLRLLEEAIRHLDPELFEEVEELAQKVLSSSS
# B12: il10ra_site1_sap_25_mot_HHH_b2_00952_af2_000000228_0001_1_18_H_._HHH_b1_05785_af2_0001_0000100007_0000001_0_0001 (protein)
# chain: SSSSDRYERVERLIERIVQLIREGDEEEARELLRELEELAKEAGNPFLEFIVRMLERLIDSSSSS
# B13: il10ra_site1_normal_mot_HHH_b1_03353_af2_000000170_0001_1_18_H_._HHH_b2_06094_0001_0000200022_0000002_0 (protein)
# chain: SSSSSDEWYEFVRKVLEEARELSKRDPEEARELLEEAIEEVEKHNDFLARFSLEHLLKALSSSSS
# B14: il10ra_site1_sap_19_mot_HHH_b1_06789_af2_000000041_0001_1_20_H_._HHH_b1_02086_af2_0001_0000200010_0000001_0_0001 (protein)
# chain: SSSSSSDETEELRERLEELLEEGDEEELKRLLLEALHVAFRHRDQELIRLLWELVKRASSSSSSS
# B15: il10ra_site1_normal_mot_3af0db62db2b275566dae2e03bf881fa_0001_000000003_0001_37_50_H_._HHH_b1_05063_af2_0001_0000400010_0000001_1 (protein)
# chain: SSSSSSQEETRAEAILYFAELADNPEARRRALEYALELARRLGDEELEEEIERLLEEINSSSSSS
# B16: il10ra_site1_normal_mot_HHH_b2_04251_af2_000000037_0001_42_56_H_._HHH_b2_02046_0001_0000300014_0000001_0_af2pred_dldesign_0_af2pred (protein)
# chain: SSSSDPAAVVAELTAKVKALLEAGKLEEAAEVLRELSRFALENKNQEAIAAIKELAKEILESSSS
# B17: il10ra_site1_sap_34_mot_HHH_b1_02351_af2_000000121_0001_21_38_H_._HHH_b2_02873_0001_0000100012_0000001_0_0001_af2pred_0001 (protein)
# chain: SSSSSDERQARNEVEALLFFAKVSSNEEAVELALELAEELAKEANDPELEELVREVKEELSSSSS
# B18: il10ra_site1_normal_mot_HHH_b2_02053_af2_000000006_0001_3_19_H_._HHH_b1_02427_0001_0000100007_0000001_0 (protein)
# chain: SSSSDAEELYELSRKALELLANGNPEEAEKLLEEAQKIAEEANNKVILFNIRFLLRQVERQSSSS
# Molecular target: il10ra, Q13651
# Assay: yeast display titration
row,Binder,apparent Kd
1,B1,inactive: no binding seen
2,B2,inactive: no binding seen
3,B3,inactive: no binding seen
4,B4,inactive: no binding seen
5,B5,inactive: no binding seen
6,B6,inactive: no binding seen
7,B7,inactive: no binding seen
8,B8,inactive: no binding seen
9,B9,inactive: no binding seen
10,B10,inactive: no binding seen
11,B11,inactive: no binding seen
12,B12,inactive: no binding seen
13,B13,inactive: no binding seen
14,B14,inactive: no binding seen
15,B15,inactive: no binding seen
16,B16,inactive: no binding seen
17,B17,inactive: no binding seen
18,B18,inactive: no binding seen

# Another view of some results above:
row | Binder | apparent Kd
8 | B8 | inactive: no binding seen
9 | B9 | inactive: no binding seen
10 | B10 | inactive: no binding seen
11 | B11 | inactive: no binding seen
12 | B12 | inactive: no binding seen
